Assay results taken from publication PMC8553144.
Results are given in words; binding and its absence hold for the method and conditions named.

Key:
G5-HP60 (A. thaliana) [1] = target: G5-HP60 (A. thaliana) (UniProt O65570); assay: AUC; sedimentation equilibrium, 28,000, 36,000 and 42,000 rpm, absorbance at 284 nm, 20°C, 20 mM PIPES, 50 mM NaCl pH 6.8; Heteroanalysis, non-ideal model with the molecular weight fixed to the monomer; both purified
G5-HP60 (A. thaliana) [2] = target: G5-HP60 (A. thaliana) (UniProt O65570); assay: AUC; sedimentation velocity, 42,000 rpm, absorbance at 280 nm, 20°C, 20 mM PIPES, 50 mM NaCl pH 6.8; SEDFIT; both purified

binding (G5-HP60 (A. thaliana) [1]): no binding
binding (G5-HP60 (A. thaliana) [2]): no binding
B1: G5-HP60 (domain or fragment, UniProt O65570 915-974)
chain: GGGGGHPYDRLKTTSTDPVSDIDVTRREAYLSSEEFKEKFGMTKEAFYKLPKWKQNKFKMAVQLF
